Experimental data published in PMC6445466.

Amino acid sequences for entries named in this document (tags omitted). A change or cut given only in a name is not applied to a line headed by its entry.
UniProt O50835: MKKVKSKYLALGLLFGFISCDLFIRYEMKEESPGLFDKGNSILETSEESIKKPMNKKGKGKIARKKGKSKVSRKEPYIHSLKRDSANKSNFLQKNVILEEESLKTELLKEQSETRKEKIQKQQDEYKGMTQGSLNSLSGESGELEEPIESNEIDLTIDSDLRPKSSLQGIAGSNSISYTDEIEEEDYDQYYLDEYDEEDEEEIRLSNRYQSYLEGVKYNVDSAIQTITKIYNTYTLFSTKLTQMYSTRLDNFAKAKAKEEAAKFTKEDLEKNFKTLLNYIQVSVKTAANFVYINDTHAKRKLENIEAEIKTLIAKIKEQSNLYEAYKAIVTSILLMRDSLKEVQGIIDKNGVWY

B1: biotinylated human C1r (enzyme, UniProt P00736 18-705)
chain: SIPIPQKLFGEVTSPLFPKPYPNNFETTTVITVPTGYRVKLVFQQFDLEPSEGCFYDYVKISADKKSLGRFCGQLGSPLGNPPGKKEFMSQGNKMLLTFHTDFSNEENGTIMFYKGFLAYYQAVDLDECASRSKSGEEDPQPQCQHLCHNYVGGYFCSCRPGYELQEDTHSCQAECSSELYTEASGYISSLEYPRSYPPDLRCNYSIRVERGLTLHLKFLEPFDIDDHQQVHCPYDQLQIYANGKNIGEFCGKQRPPDLDTSSNAVDLLFFTDESGDSRGWKLRYTTEIIKCPQPKTLDEFTIIQNLQPQYQFRDYFIATCKQGYQLIEGNQVLHSFTAVCQDDGTWHRAMPRCKIKDCGQPRNLPNGDFRYTTTMGVNTYKARIQYYCHEPYYKMQTRAGSRESEQGVYTCTAQGIWKNEQKGEKIPRCLPVCGKPVNPVEQRQRIIGGQKAKMGNFPWQVFTNIHGRGGGALLGDRWILTAAHTLYPKEHEAQSNASLDVFLGHTNVEELMKLGNHPIRRVSVHPDYRQDESYNFEGDIALLELENSVTLGPNLLPICLPDNDTFYDLGLMGYVSGFGVMEEKIAHDLRFVRLPVANPQACENWLRGKNRMDVFSQNMFCAGHPSLKQDACQGDSGGVFAVRDPNTDRWVATGIVSWGIGCSRGYGFYTKVLNYVDWIKKEMEEED
modifications: biotin (sites not told)
B2: human C1r, full-length enzyme (enzyme, UniProt P00736 18-705)
chain: B1 chain

Columns and labels:
[1] = target: BBK32, full-length lipoprotein expressed in B. burgdorferi strain B314 (B314/pCD100) (Borrelia burgdorferi) (UniProt O50835); assay: far-Western, overlay or dot blot; whole cell lysates of B. burgdorferi B314 strains resolved by SDS-PAGE on PVDF, probed with biotinylated C1 or C1r at 1 ug/ml in PBS, 0.2% Tween-20 overnight at 4 °C, IRDye streptavidin; densitometry normalised to FlaB and to BBK32; only the binder purified
[2] = target: BGD19-C (residues 206-354, B. garinii strain IP90) (Borrelia garinii strain IP90); assay: SPR; Biacore T200, 25 °C, BBK32-C, BGD19-C or BAD16-C amine-coupled; C1r as analyte, single-cycle kinetics, five-fold dilution series 1.6 to 1000 nM, HBS-T with 5 mM CaCl2; 1:1 Langmuir fit; both purified
[3] = target: BAD16-C (residues 204-352, B. afzelii strain PGau) (Borrelia afzelii strain PGau); assay: as above

Binder | binding [1] | binding [2] | binding [3]
B1 | binds |  | 
B2 |  | binds | binds

These are yes or no findings as the source states them, for the method shown. Binding calls can cover weak binding; strength is not graded here.
